Laboratory results published in PMC5750328, “Study on oligomerization of glutamate decarboxylase from Lactobacillus brevis using asymmetrical flow field-flow fractionation (AF4) with light scattering techniques” (Analytical and Bioanalytical Chemistry, 2017).
These are yes or no findings as the source states them, for the method shown. Some binding calls cover weakened binding; strength is not graded here.

Target: glutamate decarboxylase (LbGadB) from Lactobacillus brevis DSM 1269, recombinant (Lactobacillus brevis DSM 1269) (UniProt A9ZM78)
Experiment: dynamic light scattering (DLS); self-association; hydrodynamic diameter at pH 7 with NaCl, KCl, CaCl2 or (NH4)2SO4 at 0-1.2 M, at 25, 37, 45 and 60 °C; 384-well plate; both purified

- binding: binds
B1: glutamate decarboxylase (LbGadB) from Lactobacillus brevis DSM 1269, recombinant (enzyme, UniProt A9ZM78 1-480, looked up)
chain: MMNKNDQETQQMINNVDLEKTFLGSVEAGQSLPTYTLPDDPMAPDVAAQLVEHYRLNEAKANQNLATFCTTQMEPQADELMKNALNTNAIDKSEYPKTAAMENYCVSMIAHLWGIPDNEKIYDDFIGTSTVGSSEGCMLGGLALLHSWKHRAKAAGFDIEDLHSHKPNLVIMSGYQVVWEKFCTYWNVEMRQVPINGDQVSLDMDHVMDYVDENTIGIIGIEGITYTGSVDDIQTLDNLVTEYNKTATMPVRIHVDAAFGGLFAPFVDGFNPWDFRLKNVVSINVSGHKYGMVYPGLGWIVWRHDTADILPAEMRFQVPYLGKTVDSIAINFSHSGAHISAQYYNFIRFGLSGYKTIMQNVRKVSLKLTAALKTYGIFDILVDGSQLPINCWKLADDAPVGWTLYDLESELAKYGWQVPAYPLPKNRDDVTISRIVVRPSMTMTIADDFLDDLKLAIDGLNHTFGVTTTVDQDNKTTVRS
notes: glutamate decarboxylase LbGadB of Lactobacillus brevis DSM 1269; gene amplified from genomic DNA with a forward primer that holds the ATG (NdeI site) and a reverse primer with an XhoI site, cloned in pET21b; gene deposited as GenBank KX417371; Oligomeric state depends on pH: dimer at pH 7-8, hexamer at pH 6, so copies is left empty; the whole gene appears to have been cloned; Cloning NdeI/XhoI in …
